# Source: patent US20210206882A1 (AB STUDIO, published 2021)
# No constants are given. Whether binding was seen depends on the method and setting. Some results given as binding are weak or reduced against the parent protein; the word gives no strength.
# T1: CD55 (UniProt P08174 35-353, limits assumed)
# T1 construct: In the internalization assay CD55 stood on MDA231 and SIHA cells
# T1 sequence (looked up): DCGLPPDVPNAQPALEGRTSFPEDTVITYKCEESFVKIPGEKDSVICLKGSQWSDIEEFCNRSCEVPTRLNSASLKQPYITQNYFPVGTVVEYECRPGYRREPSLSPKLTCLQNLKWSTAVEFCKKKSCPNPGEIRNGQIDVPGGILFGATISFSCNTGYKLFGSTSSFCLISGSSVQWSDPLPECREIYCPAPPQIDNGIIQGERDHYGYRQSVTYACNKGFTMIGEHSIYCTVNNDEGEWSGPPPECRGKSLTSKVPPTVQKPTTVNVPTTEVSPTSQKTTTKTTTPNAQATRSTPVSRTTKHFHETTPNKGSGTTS
# B1: Anti-CD55 homodimer IgG (CD55 v2) containing the designed VH sequence (SEQ ID NO: 5) and the common VL2 sequence (SEQ ID NO: 7) (antibody, V domains shown)
# VH: QVKLQESGGGLVKPGGSLKLSCAASGFTFSGYGMSWIRQTPGKRLEWVATINSGGSYTYYSDSVKGRFTISRDNVKNTLYLQMSSLKSEDTAMYYCARRNGTLYYYLMDYWGRGTLVTVSS
# VL: QSALTQPASVSGSPGQSITISCTGTSSDVGGYNYVSWYQQHPGKAPKLMIYDVSNRPSGVSNRFSGSKSGNTASLTISGLQAEDEADYYCSSYTSSSTRIFGGGTKVTVLR
# Biological target: T1, CD55
# Assay: flow cytometry cell binding on MDA231 cells, MFI of Cy3 goat anti-human IgG; caption read as 'Ab Concentration: 0.63 µg/mL'
binder,measurement,value
B1,binding,binds
